± gives the standard deviation of the averaged measurements. The entries are a selection whose mix differs from that of the whole data set.
Compound: Nc1ncnc2c1ncn2[C@@H]1O[C@H](COP(=O)(O)OP(=O)(O)OP(=O)(O)O)[C@@H](O)[C@H]1O [adenosine triphosphate]
Experiment: NP40-soluble protein abundance relative to vehicle (solubility fold change) (ratio); higher = more soluble protein in presence of ATP
In short: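 Jurkat crude lysate (Dounce-homogenised) was treated with eight concentrations from 0.1 to 10 mM for 10 min at room temperature, then 3 min at 37 °C. It was solubilised with 0.8% NP40 and benzonase (60 min, 4 °C) and ultracentrifuged, and the supernatant was TMT-labelled for LC-MS/MS. Intensities were vsn-normalised, and the value is the fold change against the NP40-processed vehicle per replicate, from three independent experiments.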

Protein sequences, listed by entry. Tags and fused reporters are not part of them. Lines headed by an entry give the natural chain unless they say otherwise; changes in a name come on top.
UniProt P36402, whole entry: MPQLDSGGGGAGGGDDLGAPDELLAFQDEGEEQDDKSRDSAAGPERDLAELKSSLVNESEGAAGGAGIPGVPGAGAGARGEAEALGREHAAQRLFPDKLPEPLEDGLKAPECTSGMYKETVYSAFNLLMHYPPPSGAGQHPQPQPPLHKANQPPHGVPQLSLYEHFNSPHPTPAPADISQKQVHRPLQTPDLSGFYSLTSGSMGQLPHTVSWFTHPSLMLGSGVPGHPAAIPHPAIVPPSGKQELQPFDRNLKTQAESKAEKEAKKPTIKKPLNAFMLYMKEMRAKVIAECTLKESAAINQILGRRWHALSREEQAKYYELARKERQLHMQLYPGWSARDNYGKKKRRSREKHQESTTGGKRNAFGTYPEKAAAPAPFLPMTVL
UniProt P48634: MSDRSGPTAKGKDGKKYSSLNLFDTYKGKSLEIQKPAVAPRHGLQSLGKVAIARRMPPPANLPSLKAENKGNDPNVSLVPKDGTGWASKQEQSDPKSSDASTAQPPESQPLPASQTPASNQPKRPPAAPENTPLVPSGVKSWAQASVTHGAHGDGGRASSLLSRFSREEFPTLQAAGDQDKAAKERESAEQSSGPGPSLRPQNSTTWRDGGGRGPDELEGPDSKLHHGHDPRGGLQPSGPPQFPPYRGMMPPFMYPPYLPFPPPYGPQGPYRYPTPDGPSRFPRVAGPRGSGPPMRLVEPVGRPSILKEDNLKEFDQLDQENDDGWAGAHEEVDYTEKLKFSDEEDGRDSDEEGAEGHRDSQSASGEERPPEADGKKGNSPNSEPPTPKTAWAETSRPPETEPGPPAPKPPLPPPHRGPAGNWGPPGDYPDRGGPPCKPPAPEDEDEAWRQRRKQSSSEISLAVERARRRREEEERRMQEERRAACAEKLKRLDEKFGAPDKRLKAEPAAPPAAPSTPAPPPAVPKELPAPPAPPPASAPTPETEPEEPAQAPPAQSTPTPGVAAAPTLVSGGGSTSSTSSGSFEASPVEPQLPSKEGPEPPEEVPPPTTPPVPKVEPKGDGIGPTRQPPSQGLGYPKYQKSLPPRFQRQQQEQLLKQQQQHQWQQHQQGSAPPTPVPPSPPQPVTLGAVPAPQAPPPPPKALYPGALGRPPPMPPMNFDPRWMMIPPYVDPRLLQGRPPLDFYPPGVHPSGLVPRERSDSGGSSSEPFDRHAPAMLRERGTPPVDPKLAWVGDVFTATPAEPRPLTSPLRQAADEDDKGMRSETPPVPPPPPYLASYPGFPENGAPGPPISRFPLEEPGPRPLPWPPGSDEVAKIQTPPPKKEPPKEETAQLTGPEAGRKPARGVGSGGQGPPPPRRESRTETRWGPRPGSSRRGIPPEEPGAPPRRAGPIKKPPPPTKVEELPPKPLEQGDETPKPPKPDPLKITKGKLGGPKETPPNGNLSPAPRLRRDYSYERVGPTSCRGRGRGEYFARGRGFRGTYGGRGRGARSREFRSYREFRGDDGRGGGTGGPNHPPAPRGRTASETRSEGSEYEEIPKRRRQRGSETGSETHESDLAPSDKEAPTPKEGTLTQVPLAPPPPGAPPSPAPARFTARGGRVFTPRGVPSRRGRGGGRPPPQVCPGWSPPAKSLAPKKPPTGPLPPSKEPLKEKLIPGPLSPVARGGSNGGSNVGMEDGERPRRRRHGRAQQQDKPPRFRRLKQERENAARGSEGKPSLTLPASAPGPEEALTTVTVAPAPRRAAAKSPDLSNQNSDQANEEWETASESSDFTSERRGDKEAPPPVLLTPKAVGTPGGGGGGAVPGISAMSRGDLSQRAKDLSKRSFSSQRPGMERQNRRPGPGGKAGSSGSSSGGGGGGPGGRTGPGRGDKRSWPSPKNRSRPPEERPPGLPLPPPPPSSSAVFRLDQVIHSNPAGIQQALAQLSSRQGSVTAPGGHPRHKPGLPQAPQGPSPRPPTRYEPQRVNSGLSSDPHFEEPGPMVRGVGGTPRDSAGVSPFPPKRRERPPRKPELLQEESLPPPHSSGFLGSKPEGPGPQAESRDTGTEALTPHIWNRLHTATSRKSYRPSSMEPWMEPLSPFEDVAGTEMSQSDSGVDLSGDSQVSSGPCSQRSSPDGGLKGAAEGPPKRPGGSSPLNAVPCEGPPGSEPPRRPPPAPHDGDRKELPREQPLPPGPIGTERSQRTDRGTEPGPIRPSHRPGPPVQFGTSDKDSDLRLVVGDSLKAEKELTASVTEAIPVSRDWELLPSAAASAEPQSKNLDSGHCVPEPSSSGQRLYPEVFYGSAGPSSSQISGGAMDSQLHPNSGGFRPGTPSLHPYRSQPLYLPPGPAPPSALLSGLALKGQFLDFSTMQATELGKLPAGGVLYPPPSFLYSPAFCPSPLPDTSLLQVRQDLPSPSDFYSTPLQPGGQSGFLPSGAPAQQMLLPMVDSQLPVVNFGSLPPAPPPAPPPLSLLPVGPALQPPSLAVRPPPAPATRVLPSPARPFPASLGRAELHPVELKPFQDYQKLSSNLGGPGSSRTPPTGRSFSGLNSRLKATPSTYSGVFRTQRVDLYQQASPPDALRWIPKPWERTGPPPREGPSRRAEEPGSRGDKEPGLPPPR
UniProt P49916: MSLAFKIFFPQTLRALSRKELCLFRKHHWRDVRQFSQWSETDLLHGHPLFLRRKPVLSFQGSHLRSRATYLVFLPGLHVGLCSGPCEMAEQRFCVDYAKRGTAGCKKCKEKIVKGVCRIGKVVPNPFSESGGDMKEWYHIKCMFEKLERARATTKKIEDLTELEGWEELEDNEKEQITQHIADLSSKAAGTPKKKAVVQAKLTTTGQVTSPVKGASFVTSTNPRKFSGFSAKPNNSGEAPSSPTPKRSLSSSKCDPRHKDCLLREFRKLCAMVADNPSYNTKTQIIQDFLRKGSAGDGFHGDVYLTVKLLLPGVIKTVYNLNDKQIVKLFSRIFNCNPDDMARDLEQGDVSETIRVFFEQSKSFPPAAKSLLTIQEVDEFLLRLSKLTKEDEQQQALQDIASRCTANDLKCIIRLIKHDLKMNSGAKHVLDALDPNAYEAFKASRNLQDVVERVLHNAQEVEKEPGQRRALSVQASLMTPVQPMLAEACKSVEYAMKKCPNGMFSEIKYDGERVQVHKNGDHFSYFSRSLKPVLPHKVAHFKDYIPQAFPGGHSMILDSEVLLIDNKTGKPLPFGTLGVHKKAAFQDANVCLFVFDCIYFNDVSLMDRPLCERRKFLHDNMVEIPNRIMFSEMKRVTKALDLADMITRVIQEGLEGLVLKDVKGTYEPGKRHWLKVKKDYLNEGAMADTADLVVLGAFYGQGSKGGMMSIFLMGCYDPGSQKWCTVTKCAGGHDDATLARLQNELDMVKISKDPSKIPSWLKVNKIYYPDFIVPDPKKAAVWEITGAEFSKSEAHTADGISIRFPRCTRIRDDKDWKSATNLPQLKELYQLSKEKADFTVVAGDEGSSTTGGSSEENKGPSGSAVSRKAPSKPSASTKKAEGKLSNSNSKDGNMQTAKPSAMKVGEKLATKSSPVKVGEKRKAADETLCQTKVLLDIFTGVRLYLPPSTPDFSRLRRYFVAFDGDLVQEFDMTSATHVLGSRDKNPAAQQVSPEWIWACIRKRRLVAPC
UniProt P36404: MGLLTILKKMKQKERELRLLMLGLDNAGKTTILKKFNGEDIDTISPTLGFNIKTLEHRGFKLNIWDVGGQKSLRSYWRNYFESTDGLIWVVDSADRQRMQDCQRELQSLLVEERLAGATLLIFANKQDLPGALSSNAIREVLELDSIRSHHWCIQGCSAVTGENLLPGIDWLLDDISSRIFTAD
UniProt P49721: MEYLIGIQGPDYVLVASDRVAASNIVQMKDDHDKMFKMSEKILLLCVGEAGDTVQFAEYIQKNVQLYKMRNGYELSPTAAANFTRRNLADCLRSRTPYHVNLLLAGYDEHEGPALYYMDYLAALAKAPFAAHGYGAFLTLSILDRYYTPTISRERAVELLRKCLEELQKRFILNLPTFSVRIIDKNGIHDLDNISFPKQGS
UniProt P48637: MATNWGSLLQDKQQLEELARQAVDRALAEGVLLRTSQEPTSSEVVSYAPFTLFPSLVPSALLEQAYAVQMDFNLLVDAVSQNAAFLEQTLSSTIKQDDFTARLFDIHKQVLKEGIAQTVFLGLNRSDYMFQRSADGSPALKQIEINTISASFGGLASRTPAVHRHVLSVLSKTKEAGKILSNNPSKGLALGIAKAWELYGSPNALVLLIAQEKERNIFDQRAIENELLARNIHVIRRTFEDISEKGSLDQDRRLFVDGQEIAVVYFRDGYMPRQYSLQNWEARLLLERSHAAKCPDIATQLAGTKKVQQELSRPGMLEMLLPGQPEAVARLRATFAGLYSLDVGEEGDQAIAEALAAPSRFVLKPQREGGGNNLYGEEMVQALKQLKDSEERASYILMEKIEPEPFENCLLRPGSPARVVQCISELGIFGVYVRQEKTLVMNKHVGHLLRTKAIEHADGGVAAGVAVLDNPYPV
UniProt P50583: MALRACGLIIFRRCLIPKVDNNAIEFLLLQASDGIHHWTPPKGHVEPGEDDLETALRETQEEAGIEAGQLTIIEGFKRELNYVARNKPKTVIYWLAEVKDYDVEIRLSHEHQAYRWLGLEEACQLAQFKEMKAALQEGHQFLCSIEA
UniProt P40337, whole entry, looked up: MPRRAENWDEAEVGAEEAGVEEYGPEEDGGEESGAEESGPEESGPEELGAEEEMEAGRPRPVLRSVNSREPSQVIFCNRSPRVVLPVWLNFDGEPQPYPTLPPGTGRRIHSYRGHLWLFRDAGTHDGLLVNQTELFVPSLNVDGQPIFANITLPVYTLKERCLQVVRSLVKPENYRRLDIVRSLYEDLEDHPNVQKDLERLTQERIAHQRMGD
UniProt P38117: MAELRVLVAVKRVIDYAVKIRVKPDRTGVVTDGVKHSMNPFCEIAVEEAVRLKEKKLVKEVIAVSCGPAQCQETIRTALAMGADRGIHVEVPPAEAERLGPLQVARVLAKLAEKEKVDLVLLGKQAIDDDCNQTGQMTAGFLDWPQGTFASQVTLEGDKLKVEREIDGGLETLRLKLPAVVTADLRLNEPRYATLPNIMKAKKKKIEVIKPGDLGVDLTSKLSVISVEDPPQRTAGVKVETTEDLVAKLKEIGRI
UniProt P51665: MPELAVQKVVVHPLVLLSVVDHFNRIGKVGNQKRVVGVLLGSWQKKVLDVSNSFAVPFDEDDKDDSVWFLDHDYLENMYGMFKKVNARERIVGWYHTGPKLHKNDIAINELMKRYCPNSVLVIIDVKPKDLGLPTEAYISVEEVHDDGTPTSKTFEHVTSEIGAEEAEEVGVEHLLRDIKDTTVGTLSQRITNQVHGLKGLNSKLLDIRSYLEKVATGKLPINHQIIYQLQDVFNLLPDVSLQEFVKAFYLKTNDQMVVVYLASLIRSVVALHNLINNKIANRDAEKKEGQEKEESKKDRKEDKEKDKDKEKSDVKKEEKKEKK
UniProt P50995, whole entry: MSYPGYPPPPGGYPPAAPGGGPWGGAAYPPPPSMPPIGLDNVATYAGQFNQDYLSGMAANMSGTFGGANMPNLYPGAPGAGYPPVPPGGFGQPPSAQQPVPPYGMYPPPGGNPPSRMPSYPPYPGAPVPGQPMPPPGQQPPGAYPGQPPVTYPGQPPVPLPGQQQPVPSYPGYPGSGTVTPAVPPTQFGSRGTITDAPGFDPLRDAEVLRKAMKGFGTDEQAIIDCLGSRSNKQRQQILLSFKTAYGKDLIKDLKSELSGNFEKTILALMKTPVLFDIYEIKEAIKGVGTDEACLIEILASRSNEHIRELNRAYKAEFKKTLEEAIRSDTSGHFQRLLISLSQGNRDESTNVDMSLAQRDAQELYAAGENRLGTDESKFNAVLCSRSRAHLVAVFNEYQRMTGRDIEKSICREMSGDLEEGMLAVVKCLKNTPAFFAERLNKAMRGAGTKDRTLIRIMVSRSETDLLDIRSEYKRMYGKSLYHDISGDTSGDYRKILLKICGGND
UniProt P48507: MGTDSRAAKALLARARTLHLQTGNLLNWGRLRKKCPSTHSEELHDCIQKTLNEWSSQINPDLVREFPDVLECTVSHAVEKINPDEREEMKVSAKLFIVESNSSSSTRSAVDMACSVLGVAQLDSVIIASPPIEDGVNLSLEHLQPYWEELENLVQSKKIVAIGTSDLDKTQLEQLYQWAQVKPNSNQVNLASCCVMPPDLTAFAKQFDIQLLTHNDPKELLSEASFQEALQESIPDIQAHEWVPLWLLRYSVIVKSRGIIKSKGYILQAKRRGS
UniProt P40925: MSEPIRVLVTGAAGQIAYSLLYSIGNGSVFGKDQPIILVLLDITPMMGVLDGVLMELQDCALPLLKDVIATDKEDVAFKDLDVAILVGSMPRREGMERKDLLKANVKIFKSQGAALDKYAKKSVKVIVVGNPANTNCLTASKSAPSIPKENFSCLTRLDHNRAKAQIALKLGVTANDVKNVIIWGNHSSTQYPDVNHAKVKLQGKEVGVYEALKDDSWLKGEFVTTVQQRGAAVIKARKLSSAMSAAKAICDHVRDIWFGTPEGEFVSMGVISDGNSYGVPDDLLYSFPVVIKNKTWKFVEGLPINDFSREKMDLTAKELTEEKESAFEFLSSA

Target	NP40-soluble protein abundance (concentration: 1mM)	NP40-soluble protein abundance (concentration: 2mM)	NP40-soluble protein abundance (concentration: 4mM)	NP40-soluble protein abundance (concentration: 6mM)	NP40-soluble protein abundance (concentration: 8mM)	NP40-soluble protein abundance (concentration: 10mM)
UniProt P36402-5	0.903 ± 0.082	0.87 ± 0.1	0.868 ± 0.14	0.866 ± 0.16	0.892 ± 0.14	0.885 ± 0.12
UniProt P51991 and related entries	1.09 ± 0.14	1.07 ± 0.14	1.01 ± 0.12	1.18 ± 0.25	1.14 ± 0.17	1.29 ± 0.23
UniProt P48634 and related entries	1.15 ± 0.086	1.23 ± 0.077	1.34 ± 0.074	1.52 ± 0.095	1.53 ± 0.054	1.67 ± 0.059
UniProt P49916 and related entries	1.079 ± 0.0099	1.07 ± 0.032	1.05 ± 0.022	1.073 ± 0.0018	1.12 ± 0.036	1.15 ± 0.047
NCAPD3 (UniProt P42695)	1.11 ± 0.041	1.08 ± 0.026	1.12 ± 0.014	1.11 ± 0.07	1.122 ± 0.0053	1.14 ± 0.048
ARL2 (UniProt P36404)	1.03 ± 0.082	1.03 ± 0.083	0.99 ± 0.049	0.962 ± 0.11	1 ± 0.093	0.997 ± 0.072
PSMB2 (UniProt P49721)	0.944 ± 0.065	0.901 ± 0.014	0.8244 ± 0.0069	0.863 ± 0.026	0.889 ± 0.045	0.848 ± 0.038
GSS (UniProt P48637)	1 ± 0.059	0.992 ± 0.066	0.97 ± 0.044	0.96 ± 0.086	0.975 ± 0.039	0.965 ± 0.044
NUP153 (UniProt P49790)	0.948 ± 0.04	0.954 ± 0.014	0.948 ± 0.015	1.03 ± 0.033	1 ± 0.012	1.033 ± 0.0093
ARHGDIB (UniProt P52566)	0.993 ± 0.025	0.981 ± 0.026	0.936 ± 0.019	0.958 ± 0.062	0.928 ± 0.03	0.953 ± 0.059
RPL4 (UniProt P36578)	0.979 ± 0.066	0.911 ± 0.13	0.88 ± 0.13	0.802 ± 0.15	0.655 ± 0.11	0.859 ± 0.12
UniProt P49674	0.996 ± 0.017	1.02 ± 0.014	1.05 ± 0.021	1.117 ± 0.0069	1.05 ± 0.03	1.047 ± 0.0049
NUDT2 (UniProt P50583)	1.05 ± 0.16	0.993 ± 0.025	0.953 ± 0.019	0.887 ± 0.088	0.957 ± 0.0097	0.946 ± 0.027
UniProt P40337-2|P40337-3	0.894 ± 0.077	0.919 ± 0.053	0.868 ± 0.052	0.847 ± 0.073	0.878 ± 0.13	0.854 ± 0.14
IDH2 (UniProt P48735)	0.905 ± 0.12	0.942 ± 0.015	0.911 ± 0.037	0.876 ± 0.13	0.899 ± 0.12	0.929 ± 0.063
UniProt P38117 and related entries	0.957 ± 0.038	0.947 ± 0.026	0.914 ± 0.042	0.964 ± 0.012	0.919 ± 0.018	0.9182 ± 0.0047
UniProt P49407-2|P49407	0.9921 ± 0.009	1.04 ± 0.022	1.01 ± 0.037	1 ± 0.037	0.969 ± 0.029	1.02 ± 0.026
UniProt P49841 and related entries	0.9348 ± 0.0052	0.918 ± 0.031	0.926 ± 0.019	0.912 ± 0.034	0.919 ± 0.035	0.92 ± 0.043
GNAQ (UniProt P50148)	0.997 ± 0.074	0.997 ± 0.064	0.984 ± 0.047	0.948 ± 0.11	1.01 ± 0.053	0.969 ± 0.048
PSMD7 (UniProt P51665)	0.973 ± 0.059	0.914 ± 0.036	0.875 ± 0.033	0.913 ± 0.05	0.918 ± 0.038	0.897 ± 0.03
UniProt P50995 and related entries	0.984 ± 0.026	0.981 ± 0.025	0.9703 ± 0.0076	0.981 ± 0.025	0.941 ± 0.036	0.928 ± 0.052
GCLM (UniProt P48507)	0.9355 ± 0.0039	0.9519 ± 0.0088	0.902 ± 0.016	0.929 ± 0.054	0.891 ± 0.029	0.922 ± 0.025
RPL27A (UniProt P46776)	0.973 ± 0.051	0.881 ± 0.12	0.867 ± 0.087	0.77 ± 0.14	0.633 ± 0.035	0.858 ± 0.1
RFX3 (UniProt P48380)	1.04 ± 0.057	0.988 ± 0.052	1 ± 0.021	1.02 ± 0.011	1.03 ± 0.078	1.01 ± 0.048
UniProt P50219 and related entries	0.812 ± 0.29	0.8753 ± 0.0032	0.867 ± 0.029	0.844 ± 0.019	0.8297 ± 0.0026	0.897 ± 0.085
HADHA (UniProt P40939)	0.977 ± 0.039	0.938 ± 0.024	0.908 ± 0.023	0.919 ± 0.02	0.936 ± 0.025	0.93 ± 0.042
EIF2S3 (UniProt P41091)	1 ± 0.068	1.04 ± 0.058	1.03 ± 0.044	1.01 ± 0.1	0.9862 ± 0.0073	1.06 ± 0.064
UniProt P40925 and related entries	0.96 ± 0.049	0.921 ± 0.025	0.877 ± 0.035	0.944 ± 0.057	0.906 ± 0.054	0.892 ± 0.034
ETV6 (UniProt P41212)	1.26 ± 0.02	1.25 ± 0.047	1.37 ± 0.016	1.4 ± 0.014	1.51 ± 0.072	1.476 ± 0.0044
USP8 (UniProt P40818)	1 ± 0.023	1.01 ± 0.025	0.997 ± 0.021	1 ± 0.034	0.976 ± 0.018	0.972 ± 0.032

Part of the list above, reduced to NP40-soluble protein abundance (concentration: 4mM), NP40-soluble protein abundance (concentration: 8mM) and NP40-soluble protein abundance (concentration: 10mM).
Target	NP40-soluble protein abundance (concentration: 4mM)	NP40-soluble protein abundance (concentration: 8mM)	NP40-soluble protein abundance (concentration: 10mM)
UniProt P50995 and related entries	0.9703 ± 0.0076	0.941 ± 0.036	0.928 ± 0.052
UniProt P50219 and related entries	0.867 ± 0.029	0.8297 ± 0.0026	0.897 ± 0.085

Source: the supplement of paper PMC6411743
